Data published in PubChem BioAssay AID2685 (National Center for Advancing Translational Sciences (NCATS), 2010).
Among all 320,000 compounds or so, about 2,100 (0.66%) were called active. The shares of active, inactive and inconclusive entries below differ from those in the screen. Calls follow the shape of the dose curve; as a rule, active = well fitted inhibition curve with a large enough effect in the signal ratio, with a control signal flat (not every such curve was filed as active); inconclusive = small, poorly fitted or top-dose-only effect, or effect the other way, or a change in a side signal; inactive = flat fitted curve, though single readings scatter; the % refers to the signal ratio. Where the call is inconclusive, the potency comes from a doubtful curve fit.

experiment: qHTS Assay for Lipid Storage Modulators in Drosophila S3 Cells; conditions: BODIPY lipid droplet fluorescence, 18-24 h, cells fed with added oleic acid; lipid storage change, negative = inhibition: at 46.1 µM (top of the series) unless noted
In short: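 Laser-scanning cytometry quantifies lipid droplet accumulation (500–530 nm total intensity; droplet/cell object ratio) in oleic acid-fed (400 uM added) Drosophila S3 cells treated with a concentration series. 20 uM Triacsin C defined 100% inhibition.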
% is scaled to controls: 0 for no effect and ±100 for the full control effect; potency is read from the fitted curve at half-maximal effect.

Compound	lipid storage change, negative = inhibition	Potency
O=C1C(=O)N(CCN2CCOCC2)C(c2ccncc2)/C1=C(/O)c1ccc2c(c1)OCO2 (stereo not given)	inconclusive: 9.36%	
COC(=O)c1cc(N=C(N)N=C(N)N)cc(C(=O)OC)c1	inconclusive: 22.2%	
Cc1[nH]nc2c1C1(CCOC1C)C(C#N)=C(N)O2 (stereo not given)	inconclusive: 11.7%	
Cc1ccc(-c2csc3nc4ccc(C(=O)NCCO)cc4c(=O)n23)cc1		inconclusive: 29.1 µM [falling, single point]
COc1cccc(NC2=Nc3cccc4cccc2c34)c1	inconclusive: 5.98%	
CC(C)CC1NC(=O)N(CC(=O)NC2CCCc3ccccc32)C1=O (stereo not given)	inconclusive: 3.71%	
Cc1ccccc1OCC(=O)OCC(=O)c1c[nH]c2ccccc12		inconclusive: 16.4 µM [activator, single point]
CCOC(=O)c1sc(-n2[nH]c(C)cc2=O)nc1C	inconclusive: -4.73%	
O=C(Nc1ccc2ccccc2c1)c1ccc2[nH]c(=O)c(=O)[nH]c2c1	inactive	
CCC(=O)Nc1cccc(NC(=S)NC(=O)c2ccccc2)c1		inconclusive: 20.6 µM [rising, single point]
COC(=O)CCc1cccc(CCC(=O)OC)c1	inconclusive: 10.4%	
Cc1cc(C)nc(NC(=O)c2ccc(Cl)c(Cl)c2)n1	inconclusive: -9.65%	
CCCCCn1c(CN(C)Cc2ccccc2)nc2c1c(=O)n(C)c(=O)n2C	inconclusive: -66.8%	
O=C(Oc1ccccc1)c1cccnc1Oc1ccccc1		inconclusive: 0.461 µM [cytotoxic, full curve, poor fit]
Cc1ccc(NC(=S)NC(=O)c2ccc(F)cc2)cc1S(=O)(=O)Nc1cccc(Cl)c1		inconclusive: 16.4 µM [falling, single point]
Cc1cccc(OCc2nnc(SCC(=O)N3c4ccccc4Sc4ccc(Cl)cc43)o2)c1		inconclusive: 6.51 µM [activator, single point]
CC(=O)N1N=C(c2ccncc2)OC12CCCC2		active: 16.4 µM
Cc1cccc(N2CCN(Cc3nc(C4CC4)no3)CC2)n1	inconclusive: 4.31%	
CC(=O)N(c1ccc2oc(=O)sc2c1)S(=O)(=O)c1cccs1	inconclusive: 31.9%	
Cc1ccc(NC(=O)N2CCc3ccccc3C2)cc1		inconclusive: 1.16 µM [activator, partial curve]
NNC(=O)/C(=N/Nc1ccccc1)S(=O)(=O)c1ccc(Cl)cc1	inconclusive: 9.65%	
CCN(C1CCS(=O)(=O)C1)S(=O)(=O)c1ccc(Cl)s1 (stereo not given)	inconclusive	
Cc1ccc(N(Cc2cc(=O)[nH]c3ccccc23)C(=O)C(C)C)cc1	inconclusive: 4.1%	
CC(=O)OCC1(C)CN(c2ccccc2)N(C(=O)c2ccc(C(C)(C)C)cc2)C1=O (stereo not given)	inconclusive: -9.73%	
COc1ccc(-c2ccc(/C=N/NC(=O)c3cccnc3)o2)c([N+](=O)[O-])c1		inconclusive: 0.164 µM [falling, full curve, poor fit]

Compound	lipid storage change, negative = inhibition	Potency
CC(=O)Nc1ccc(C(=O)N2CCN(C(=O)c3ccco3)CC2)cc1		inconclusive: 0.0073 µM [falling, full curve, poor fit]
C=CCOc1cccc(C2C(C(=O)c3cccs3)=C(O)C(=O)N2Cc2cccnc2)c1 (stereo not given)	inconclusive: 4.06%	
CC(=O)NC(Cc1ccc(F)cc1)C(=O)NC1CCN(C(=O)Nc2cccc(C)c2)CC1 (stereo not given)	inconclusive: -16.2%	
CC1CCCN(C(=O)CNS(=O)(=O)c2cccs2)C1 (stereo not given)		inconclusive: 6.51 µM [falling, single point]
Cc1ccc(NC(=O)c2cccc(-n3cnnn3)c2)cc1Cl		inconclusive: 6.51 µM [falling, single point]
Cc1cccc(NC(=O)CSc2nc3ccccc3c(=O)n2C)c1		inconclusive: 7.31 µM [falling, partial curve]
COc1ccc(NCc2nnc(SCc3ccc(Cl)cc3)n2-c2ccccc2)cc1	inconclusive: -14.2%	
Cc1ccc(-n2c(SCc3nc4ccccc4c(=O)[nH]3)nnc2-c2ccccc2O)cc1		inconclusive: 2.31 µM [activator, partial curve]
O=C1CCN(CCCc2ccccc2)CCN1[C@H](CO)c1ccccc1		inconclusive: 23.1 µM [activator, single point]
O=[N+]([O-])c1ccc(N2CCN(c3ccccc3O)CC2)c(Cl)c1	inconclusive: -61.3%	
Cc1ccc2cccc(OCc3ccccc3)c2n1	inconclusive: 23.2%	
CC1=NN(c2ccc(N)cc2)C(=O)C1		inconclusive: 0.291 µM [falling, full curve]
CC1(C)CC(=O)C2=C(C1)OC(N)=C(C#N)C2c1ccsc1 (stereo not given)	inactive	
COc1ccc(NC(=O)c2cn(CCC#N)nc2-c2cc3ccccc3o2)cc1	inconclusive: 13.7%	
Cc1ccccc1NC(=O)CCN1CCN(C)CC1	inconclusive: -25.7%	
O=C(c1nc2ccc(Cl)cn2c1CN1CCCC1)N1CCc2ccccc2C1	inconclusive: -47.3%	
Cc1ccccc1NC(=O)C(=O)c1cn(C)c2ccccc12	inconclusive: 11.6% [at 9.22 µM]	
O=C(COc1ccc(S(=O)(=O)N2CCCCC2)cc1)N1CCCCCC1		inconclusive: 0.82 µM [falling, full curve, poor fit]
O=C(CCl)Nc1ccccc1Sc1ccccc1	inconclusive: -33.1%	
CCCC1=C/C(=C/c2ccc(-c3ccccc3OC)o2)C(=O)O1	inconclusive: -0.115%	
Cc1ccc(Nc2nc(C)cc(C)n2)c(Br)c1		inconclusive: 5.8 µM [rising, partial curve]
Cc1ccc(NC(NC(=O)c2cccs2)C(Cl)(Cl)Cl)cc1C (stereo not given)	inactive	
O=C(COC(=O)C1CC1)NCc1ccccc1	inactive	
Cc1cc2cc(CNC(=S)Nc3ccc(OC(F)F)cc3)ccc2[nH]1		inconclusive: 7.31 µM [activator, partial curve]
Cc1ccc(NC(=O)C2C(=O)N(C)c3ccccc32)cc1 (stereo not given)		inconclusive: 2.59 µM [falling, partial curve, poor fit]

Rewritten comma-delimited: ten of the compounds above.
Compound,"lipid storage change, negative = inhibition",Potency
Cc1ccc(-c2csc3nc4ccc(C(=O)NCCO)cc4c(=O)n23)cc1,,"inconclusive: 29.1 µM [falling, single point]"
CCOC(=O)c1sc(-n2[nH]c(C)cc2=O)nc1C,inconclusive: -4.73%,
Cc1ccc(NC(=S)NC(=O)c2ccc(F)cc2)cc1S(=O)(=O)Nc1cccc(Cl)c1,,"inconclusive: 16.4 µM [falling, single point]"
CC(=O)N1N=C(c2ccncc2)OC12CCCC2,,active: 16.4 µM
Cc1cccc(N2CCN(Cc3nc(C4CC4)no3)CC2)n1,inconclusive: 4.31%,
Cc1ccc(N(Cc2cc(=O)[nH]c3ccccc23)C(=O)C(C)C)cc1,inconclusive: 4.1%,
CC(=O)OCC1(C)CN(c2ccccc2)N(C(=O)c2ccc(C(C)(C)C)cc2)C1=O (stereo not given),inconclusive: -9.73%,
C=CCOc1cccc(C2C(C(=O)c3cccs3)=C(O)C(=O)N2Cc2cccnc2)c1 (stereo not given),inconclusive: 4.06%,
Cc1ccc(-n2c(SCc3nc4ccccc4c(=O)[nH]3)nnc2-c2ccccc2O)cc1,,"inconclusive: 2.31 µM [activator, partial curve]"
O=C(COC(=O)C1CC1)NCc1ccccc1,inactive,
